Laboratory results from patent US20180066045A1.
Results are given in words; binding and its absence hold for the method and conditions named. Some binding calls cover weakened binding; strength is not graded here.

Biological target: T1, Insulin-like growth factor-binding protein 7 (human IGFBP7) (human) (UniProt Q16270)
T1 sequence: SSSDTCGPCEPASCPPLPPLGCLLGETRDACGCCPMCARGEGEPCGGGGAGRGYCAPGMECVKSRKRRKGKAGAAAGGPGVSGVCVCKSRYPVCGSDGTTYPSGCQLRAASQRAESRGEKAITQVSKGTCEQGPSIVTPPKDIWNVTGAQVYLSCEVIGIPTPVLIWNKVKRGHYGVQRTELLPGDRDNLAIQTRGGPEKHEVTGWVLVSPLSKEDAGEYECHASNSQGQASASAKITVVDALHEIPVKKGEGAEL
Experiment: epitope mapping

binding: binds
B1: 1D6 (antibody, mouse IgG1, V domains shown)
VH: QIQLVQSGPELKKPGETVKISCKASGYTFKKYGMNWVKQAPGKGLKWMGWINTYTGEPIYADDFKGRFAFSLETSASTAYLQISNLKNEDTATYFCAREEYGPFYAMDYWGQGTSVTVSS
VL: QIVLTQSPAIMSASPGEKVTMTCSASSSVSYMHWYQQKSGTSPKRWIYDTSELASGVPARFSGSGSGTSYSLTISSMEAEDAATYYCQQWSSSPFTFGSGTKLEIKR
